The target of experiment [1] is T1, GRP78, purified recombinant protein (UniProt P11021 19-654, limits assumed).
T1 construct: also called glucose-regulated protein 78 kDa; BiP
Description: co-immunoprecipitation with anti-GRP78 antibody, immunoblot with anti-ISM antibody. (A western blot detects proteins with antibodies after separation by electrophoresis.)

Chains of the proteins cited; added tags and fusions are not shown. Lines headed by an entry give the natural chain unless they say otherwise; changes in a name come on top. Residues count along the entry.
UniProt P11021, residues 19-654: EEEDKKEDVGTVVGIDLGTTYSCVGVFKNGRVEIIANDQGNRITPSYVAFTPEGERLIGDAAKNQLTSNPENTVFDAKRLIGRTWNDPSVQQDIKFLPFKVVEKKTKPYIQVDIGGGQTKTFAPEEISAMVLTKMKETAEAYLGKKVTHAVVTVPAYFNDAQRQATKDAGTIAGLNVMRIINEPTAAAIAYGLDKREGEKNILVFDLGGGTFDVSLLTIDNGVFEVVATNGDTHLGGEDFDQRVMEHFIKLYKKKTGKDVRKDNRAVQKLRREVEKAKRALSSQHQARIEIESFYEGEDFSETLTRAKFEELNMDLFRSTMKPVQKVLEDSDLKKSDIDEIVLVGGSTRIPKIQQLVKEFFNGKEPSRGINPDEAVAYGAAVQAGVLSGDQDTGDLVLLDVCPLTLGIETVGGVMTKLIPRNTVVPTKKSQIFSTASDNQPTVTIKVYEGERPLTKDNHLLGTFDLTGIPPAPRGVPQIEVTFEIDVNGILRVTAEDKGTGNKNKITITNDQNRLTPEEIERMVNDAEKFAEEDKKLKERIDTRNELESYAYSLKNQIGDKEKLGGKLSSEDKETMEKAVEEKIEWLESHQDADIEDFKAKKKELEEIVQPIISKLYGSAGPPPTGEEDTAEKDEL
UniProt A2ATD1: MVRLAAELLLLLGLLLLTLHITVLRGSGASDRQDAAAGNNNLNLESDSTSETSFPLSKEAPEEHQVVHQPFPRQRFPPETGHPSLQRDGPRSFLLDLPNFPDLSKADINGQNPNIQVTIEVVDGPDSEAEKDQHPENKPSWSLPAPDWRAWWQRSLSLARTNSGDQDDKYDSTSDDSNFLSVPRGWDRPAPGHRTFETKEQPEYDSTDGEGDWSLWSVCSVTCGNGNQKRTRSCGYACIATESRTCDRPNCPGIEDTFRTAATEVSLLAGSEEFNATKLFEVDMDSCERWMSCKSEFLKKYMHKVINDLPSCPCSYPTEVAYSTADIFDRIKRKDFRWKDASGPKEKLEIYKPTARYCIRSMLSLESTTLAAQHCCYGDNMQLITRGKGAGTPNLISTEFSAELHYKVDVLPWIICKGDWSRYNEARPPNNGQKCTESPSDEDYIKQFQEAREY

Experiment [2] concerns the target T1, GRP78, purified recombinant protein. In words: co-immunoprecipitation of purified recombinant proteins.

No constants are given. Whether binding was seen depends on the method and setting. Binding seen in cells or lysates may run through a third protein. Binding can be weak; no strength is given.

Binding data for one substance are collected here from US20160002297A1, “THERAPEUTIC AGENTS” (NATIONAL UNIVERSITY OF SINGAPORE, priority 2013, published 2016).

As for “Isthmin (ISM), recombinant His-tagged protein (from UniProt A2ATD1) (ligand)”, the binding result in experiment [1] and in experiment [2] was “binds” in each case.
